# Data published in PubChem BioAssay AID2685 (National Center for Advancing Translational Sciences (NCATS), 2010).
# The other results are listed elsewhere or left out. The main result of the screen is listed elsewhere. These columns were measured beside it and carry no call. Compounds called inactive in the main read-out are mostly missing here. The note in brackets gives the kind of curve behind each potency; many fits are weak.
# Experiment: qHTS Assay for Lipid Storage Modulators in Drosophila S3 Cells;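 as to cell number change: cells counted by Cell Tracker Red CMTPX staining in the red channel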
# Settings: BODIPY lipid droplet fluorescence, 18-24 h; for cell number change: measured here: cell count max response, cells fed with added oleic acid
# Procedure, shortened: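 Drosophila S3 cells loaded with oleic acid (400 uM, as added) and compounds at several concentrations; lipid droplets imaged by 488-nm laser-scanning cytometry, 500–530 nm intensity and object ratio to cell channel. Percent activity normalized to 20 uM Triacsin C.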
# [1] = measured here: cell number channel AC50, cells fed with added oleic acid
# [2] = measured here: lipid fluorescence (Fed channel) AC50, cells fed with added oleic acid
smiles,measurement,setting,value
COC(=O)C(C)(C)ONC(=O)Nc1ccc([N+](=O)[O-])cc1,cell number change,,60.5%
same,AC50,[1],"20.6 µM [rising, single point]"
CCOc1ccc(NS(=O)(=O)c2ccc(NC(=O)C3CCCO3)cc2)cc1 (stereo not given),cell number change,,27.3%
same,AC50,[2],"3.66 µM [rising, partial curve, poor fit]"
COc1ccccc1NC(=S)NC(=O)c1ccc(-c2ccc(Cl)cc2)o1,cell number change,,14.3%
same,AC50,[2],"16.4 µM [rising, single point]"
COc1ccc(OC)c(NC(=O)CSc2ccc(-c3cccnc3)nn2)c1,cell number change,,6.16%
same,AC50,[1],"3.66 µM [rising, single point]"
same,AC50,[2],"6.51 µM [rising, single point]"
CCCCc1ccc(NC(=O)Nc2cccnc2)cc1,cell number change,,37.8%
N#C/C(=C/c1ccc(O)c(O)c1)c1nc2ccccc2[nH]1,cell number change,,-37.7%
same,AC50,[1],"29.1 µM [falling, single point]"
same,AC50,[2],"29.1 µM [falling, single point]"
CCOC(=O)C1=C(C)N=c2s/c(=C\c3ccc(OCC(=O)O)cc3)c(=O)n2C1c1ccccc1OC (stereo not given),cell number change,,-28.1%
same,AC50,[2],"29.1 µM [falling, single point]"
Cc1cc(C(=O)NC(C)c2ccccc2)c2cc(F)ccc2n1 (stereo not given),cell number change,,21.7%
same,AC50,[2],"25.9 µM [falling, single point]"
CCc1ccccc1NC(=O)CN1CCN(C(=O)CNC(=O)c2ccc(-c3ccccc3)cc2)CC1,cell number change,,-14%
same,AC50,[2],"16.4 µM [rising, single point]"
CC(C)n1nnnc1SCC(=O)Nc1ccc2c(c1)OCCO2,cell number change,,-0.195%
same,AC50,[2],"8.2 µM [rising, partial curve]"
O=C(/C=C/c1ccc(Cl)cc1Cl)c1ccc[nH]1,cell number change,,-58.6%
same,AC50,[1],"32.6 µM [falling, single point]"
COc1ccc(C(CNC(=O)c2ccc(Br)o2)N2CCN(C)CC2)cc1 (stereo not given),cell number change,,-34.1%
same,AC50,[2],"25.9 µM [falling, partial curve]"
Cc1ccc(-c2cnc3cc(C)nn3c2)cc1,cell number change,,51.9%
same,AC50,[1],"2.06 µM [rising, full curve]"
CC(C)(C)n1ncc2c(=O)n(CC(=O)c3ccc(Cl)cc3)cnc21,cell number change,,-4.75%
same,AC50,[1],"0.731 µM [rising, full curve]"
same,AC50,[2],"1.03 µM [rising, full curve]"
CCc1nnc(NC(=O)CCC(=O)N2CCN(CCOc3ccc(C)cc3)CC2)s1,cell number change,,-8.56%
same,AC50,[2],"0.461 µM [falling, full curve, poor fit]"
C/C(CC(=O)Nc1cccc(Cl)c1Cl)=N\NC(=O)c1ccccc1C,cell number change,,-0.289%
same,AC50,[2],"0.461 µM [falling, full curve, poor fit]"
Cc1ccc(/C=C/C(=O)OCn2nnc3ccccc3c2=O)o1,cell number change,,12.3%
same,AC50,[2],"13 µM [rising, partial curve]"
CCOc1ccc(NC(=O)CSc2ccc(-c3ccco3)nn2)cc1,cell number change,,25.7%
same,AC50,[2],"29.1 µM [rising, single point]"
CC(C)N(Cc1ccccc1)C(=O)c1cccs1,cell number change,,-25.8%
same,AC50,[2],"18.4 µM [falling, single point]"
COc1ccccc1CNC(=O)c1cccnc1,cell number change,,1.92%
same,AC50,[2],"6.51 µM [rising, single point]"
Cc1ccc(S(=O)(=O)N(C)C)cc1NC(=O)C1CCCN(C(=O)c2ccc(Cl)cc2)C1 (stereo not given),cell number change,,10.8%
same,AC50,[2],"0.92 µM [rising, full curve]"
Cc1cc(C)c2c(=O)n(CC(=O)NCCCN3CCN(c4ccccc4F)CC3)sc2n1,cell number change,,-108%
same,AC50,[1],"23.1 µM [falling, partial curve]"
same,AC50,[2],"25.9 µM [falling, partial curve]"
COc1ccc(COCC(O)CN2CCC(CN3C(=O)c4cccc5cccc(c45)C3=O)CC2)cc1OC (stereo not given),cell number change,,-16.5%
same,AC50,[1],"1.84 µM [falling, partial curve]"
same,AC50,[2],"3.66 µM [falling, partial curve, poor fit]"
CC(C)c1ccc(C(=O)CC2(O)C(=O)N(CN3CCOCC3)c3ccccc32)cc1 (stereo not given),cell number change,,143%
S=C(Nc1ccc(N2CCOCC2)cc1)Nc1ccc2snnc2c1,AC50,[1],"0.00517 µM [rising, full curve, poor fit]"
same,AC50,[2],"0.92 µM [rising, full curve, poor fit]"
Cc1cccc(OCC(=O)O/N=C(\N)Cc2ccc([N+](=O)[O-])cc2)c1,cell number change,,16.1%
same,AC50,[2],"25.9 µM [rising, partial curve, poor fit]"
Cc1cc(C(=O)CN2C(=O)C(=O)N(Cc3ccccc3)C2=O)c(C)n1-c1ccccc1F,AC50,[2],"0.13 µM [rising, single point]"
COc1ccc(CNS(=O)(=O)NCc2ccc(OC)c(OC)c2)cc1,cell number change,,0.271%
COC(OC)C1Nc2ccccc2C(=O)N1c1ccc(F)cc1 (stereo not given),cell number change,,-8.87%
same,AC50,[2],"0.13 µM [rising, full curve, poor fit]"
CCc1cccc(NC(=O)CCS(=O)(=O)c2ccc(Br)cc2)c1,cell number change,,-15.6%
same,AC50,[2],"29.1 µM [falling, single point]"
CCc1ccc(OCC(=O)Nc2ccc(S(=O)(=O)N3CCOCC3)cc2)cc1,cell number change,,87%
same,AC50,[1],"14.6 µM [rising, partial curve]"
CC1CC(NS(=O)(=O)c2cc3c4c(c2)CCN4C(=O)CC3)CC(C)(C)C1 (stereo not given),cell number change,,-8.21%
same,AC50,[2],"2.31 µM [falling, single point]"
CCn1c(COc2ccc(Cl)cc2)nnc1SCc1nc2ccccc2[nH]1,AC50,[2],"0.651 µM [rising, partial curve, poor fit]"
CCc1ccc(C(CNc2nc(C(F)(F)F)nc3ccccc23)N(C)C)cc1 (stereo not given),cell number change,,2.52%
same,AC50,[2],"29.1 µM [rising, single point]"
CCCSc1nnc(NC(=O)c2sc3nc(-c4cccs4)ccc3c2N)s1,cell number change,,101%
same,AC50,[2],"7.31 µM [rising, single point]"
CCOC(=O)C1CCN(C(=O)c2cccnc2)CC1,cell number change,,0.718%
same,AC50,[2],"0.231 µM [falling, full curve, poor fit]"
Cc1nn(C)c(Cl)c1C(=O)NCC(=O)O,cell number change,,-30.3%
same,AC50,[2],"29.1 µM [falling, single point]"
COc1ccc(NC(=O)CCCc2ccccc2)cc1OC,cell number change,,-4.4%

# Two entries picked at random from those above, as already listed:
smiles,measurement,setting,value
N#C/C(=C/c1ccc(O)c(O)c1)c1nc2ccccc2[nH]1,AC50,[1],"29.1 µM [falling, single point]"
CCOC(=O)C1CCN(C(=O)c2cccnc2)CC1,AC50,[2],"0.231 µM [falling, full curve, poor fit]"

# Two entries from above, set out differently:
smiles | measurement | setting | value
COc1ccc(OC)c(NC(=O)CSc2ccc(-c3cccnc3)nn2)c1 | AC50 | [1] | 3.66 µM [rising, single point]
CCc1ccccc1NC(=O)CN1CCN(C(=O)CNC(=O)c2ccc(-c3ccccc3)cc2)CC1 | cell number change |  | -14%
